Drawing on publication PMC4832065, this text covers binding for two molecules.

Chains of the proteins cited; added tags and fusions are not shown. Lines headed by an entry give the natural chain unless they say otherwise; changes in a name come on top.
UniProt Q9Y6K9: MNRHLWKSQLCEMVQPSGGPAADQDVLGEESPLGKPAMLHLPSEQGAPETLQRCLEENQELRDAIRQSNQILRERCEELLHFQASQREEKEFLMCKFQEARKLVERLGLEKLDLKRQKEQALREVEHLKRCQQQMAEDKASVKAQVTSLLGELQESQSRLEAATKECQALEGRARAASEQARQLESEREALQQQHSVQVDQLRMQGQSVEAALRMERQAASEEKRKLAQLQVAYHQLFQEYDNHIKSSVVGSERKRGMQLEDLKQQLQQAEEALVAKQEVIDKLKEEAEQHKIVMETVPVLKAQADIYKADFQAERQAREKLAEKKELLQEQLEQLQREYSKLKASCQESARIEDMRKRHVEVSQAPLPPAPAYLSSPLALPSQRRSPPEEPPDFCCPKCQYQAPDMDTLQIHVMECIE
UniProt Q9UDY8: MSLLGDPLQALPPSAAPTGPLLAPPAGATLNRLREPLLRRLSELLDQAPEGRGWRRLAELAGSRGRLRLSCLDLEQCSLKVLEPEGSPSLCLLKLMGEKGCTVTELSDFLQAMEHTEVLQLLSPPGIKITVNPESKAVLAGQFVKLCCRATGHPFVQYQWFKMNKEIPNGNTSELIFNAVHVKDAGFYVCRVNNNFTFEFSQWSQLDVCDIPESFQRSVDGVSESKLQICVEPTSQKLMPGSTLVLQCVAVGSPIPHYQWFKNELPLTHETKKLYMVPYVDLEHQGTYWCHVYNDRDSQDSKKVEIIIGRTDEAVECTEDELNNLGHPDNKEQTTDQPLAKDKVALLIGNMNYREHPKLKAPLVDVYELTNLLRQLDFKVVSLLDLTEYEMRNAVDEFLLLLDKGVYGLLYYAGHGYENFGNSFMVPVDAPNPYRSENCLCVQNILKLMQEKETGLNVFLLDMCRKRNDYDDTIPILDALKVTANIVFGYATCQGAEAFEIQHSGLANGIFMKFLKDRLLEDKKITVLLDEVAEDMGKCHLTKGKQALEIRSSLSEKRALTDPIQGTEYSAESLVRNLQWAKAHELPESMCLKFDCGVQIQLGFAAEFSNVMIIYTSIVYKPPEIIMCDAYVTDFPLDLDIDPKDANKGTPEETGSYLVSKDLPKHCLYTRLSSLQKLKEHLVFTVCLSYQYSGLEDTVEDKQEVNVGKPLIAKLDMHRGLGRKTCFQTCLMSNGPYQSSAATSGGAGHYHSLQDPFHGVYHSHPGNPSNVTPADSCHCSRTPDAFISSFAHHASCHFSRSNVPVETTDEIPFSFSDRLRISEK

Results are given in words; binding and its absence hold for the method and conditions named. In cells and extracts the contact can be indirect. For some assays here: Binding can be weak; no strength is given.

In assay [1] the target is NEMO (IKK regulatory subunit) (human (endogenous in Jurkat)) (UniProt Q9Y6K9). Briefly: co-IP; NEMO IP (anti-NEMO, overnight 4 °C, Protein G Sepharose) from lysates of reconstituted MALT1-deficient Jurkat T cells after P/I stimulation; co-IP buffer; MALT1 detected by western blot, modified MALT1 indicative of ubiquitination.
The target in assay [2] is MALT1B T6BM3 EA-StrepTagII (mutation of the binding site T6BM3 in MALT1B) (human) (UniProt Q9UDY8). The assay can be described thus: pull-down; StrepT-PD: MALT1-StrepTagII variants precipitated on Strep-Tactin Sepharose (4 °C overnight) from lysates of reconstituted MALT1-deficient Jurkat T cells after 30 min P/I stimulation; co-IP buffer (25 mM HEPES pH 7.5, 150 mM NaCl, 0.2% NP-40, 10% glycerol, 1 mM DTT); western blot.

With “MALT1B T6BM3 EA-StrepTagII (mutation of the binding site T6BM3 in MALT1B) (from UniProt Q9UDY8-2)”, the binding entry in assay [1] is given as “no binding”.

B1: BCL10 (protein, UniProt O95999 1-233)
chain: MEPTAPSLTEEDLTEVKKDALENLRVYLCEKIIAERHFDHLRAKKILSREDTEEISCRTSSRKRAGKLLDYLQENPKGLDTLVESIRREKTQNFLIQKITDEVLKLRNIKLEHLKGLKCSSCEPFPDGATNNLSRSNSDESNFSEKLRASTVMYHPEGESSTTPFFSTNSSLNLPVLEVGRTENTIFSSTTLPRPGDPGAPPLPPDLQLEEEGTCANSSEMFLPLRSRTVSRQ
Turning to B1, the binding result in assay [2] is recorded as “binds”.
